Results as given in article PMC8447601.
These are yes or no findings as the source states them, for the method shown. Binding seen in cells or lysates may run through a third protein. Some results given as binding are weak or reduced against the parent protein; the word gives no strength. Sequences can lack the tags named with a protein.

T1: TSN2 fused to CFP or YFP for FRET (Arabidopsis thaliana) (UniProt Q9FLT0)
T1 sequence: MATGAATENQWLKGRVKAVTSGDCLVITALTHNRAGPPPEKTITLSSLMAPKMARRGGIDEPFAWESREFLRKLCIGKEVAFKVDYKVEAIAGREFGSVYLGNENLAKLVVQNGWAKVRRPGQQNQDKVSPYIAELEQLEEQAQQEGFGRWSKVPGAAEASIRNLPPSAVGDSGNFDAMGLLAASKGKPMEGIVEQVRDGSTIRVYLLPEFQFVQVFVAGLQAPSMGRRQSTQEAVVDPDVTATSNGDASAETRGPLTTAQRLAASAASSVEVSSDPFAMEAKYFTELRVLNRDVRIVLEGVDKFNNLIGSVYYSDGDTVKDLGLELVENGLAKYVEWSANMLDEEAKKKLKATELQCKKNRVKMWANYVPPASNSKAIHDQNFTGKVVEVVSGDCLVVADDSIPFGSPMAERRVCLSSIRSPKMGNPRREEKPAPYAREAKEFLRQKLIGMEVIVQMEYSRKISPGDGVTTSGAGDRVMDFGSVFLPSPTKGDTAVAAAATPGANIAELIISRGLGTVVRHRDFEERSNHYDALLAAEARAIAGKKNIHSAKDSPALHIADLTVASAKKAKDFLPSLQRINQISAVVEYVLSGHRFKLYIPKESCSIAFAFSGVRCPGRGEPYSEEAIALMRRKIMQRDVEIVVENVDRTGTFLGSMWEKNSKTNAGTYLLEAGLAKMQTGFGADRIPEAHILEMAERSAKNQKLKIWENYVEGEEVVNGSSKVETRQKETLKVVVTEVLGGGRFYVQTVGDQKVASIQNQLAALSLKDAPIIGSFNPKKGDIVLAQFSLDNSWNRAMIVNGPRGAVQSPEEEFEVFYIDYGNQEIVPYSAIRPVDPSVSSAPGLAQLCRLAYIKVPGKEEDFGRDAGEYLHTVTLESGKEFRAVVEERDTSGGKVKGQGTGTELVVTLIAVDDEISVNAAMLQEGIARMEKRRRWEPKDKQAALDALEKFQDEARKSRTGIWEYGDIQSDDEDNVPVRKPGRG

T2: GFP‐TSN1 (Arabidopsis thaliana) (UniProt Q8VZG7)
T2 sequence: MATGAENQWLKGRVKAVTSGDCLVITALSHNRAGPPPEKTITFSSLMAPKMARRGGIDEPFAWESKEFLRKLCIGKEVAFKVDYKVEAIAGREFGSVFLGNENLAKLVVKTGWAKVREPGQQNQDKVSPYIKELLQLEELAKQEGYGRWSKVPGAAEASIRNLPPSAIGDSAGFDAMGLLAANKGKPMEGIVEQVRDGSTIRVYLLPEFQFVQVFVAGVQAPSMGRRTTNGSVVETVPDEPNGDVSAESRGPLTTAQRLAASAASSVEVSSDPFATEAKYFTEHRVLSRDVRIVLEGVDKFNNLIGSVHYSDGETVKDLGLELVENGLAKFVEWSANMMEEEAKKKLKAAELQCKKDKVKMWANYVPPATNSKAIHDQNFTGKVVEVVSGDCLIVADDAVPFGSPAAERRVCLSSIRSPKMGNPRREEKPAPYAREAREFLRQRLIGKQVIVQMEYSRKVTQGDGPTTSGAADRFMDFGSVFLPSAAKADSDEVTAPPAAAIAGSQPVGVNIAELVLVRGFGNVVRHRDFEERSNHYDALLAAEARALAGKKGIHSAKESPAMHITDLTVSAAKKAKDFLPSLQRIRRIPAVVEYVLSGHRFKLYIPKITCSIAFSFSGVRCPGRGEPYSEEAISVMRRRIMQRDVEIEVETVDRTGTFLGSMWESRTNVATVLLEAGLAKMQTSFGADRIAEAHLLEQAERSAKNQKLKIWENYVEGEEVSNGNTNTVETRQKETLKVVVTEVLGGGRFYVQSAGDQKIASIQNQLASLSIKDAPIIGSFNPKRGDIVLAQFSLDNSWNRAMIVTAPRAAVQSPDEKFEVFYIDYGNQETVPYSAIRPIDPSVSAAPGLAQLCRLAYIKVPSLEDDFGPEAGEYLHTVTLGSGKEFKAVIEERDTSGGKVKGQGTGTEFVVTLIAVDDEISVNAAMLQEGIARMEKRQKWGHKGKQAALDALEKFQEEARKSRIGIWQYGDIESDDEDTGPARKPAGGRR

T3: GFP‐TSN2 (Arabidopsis thaliana) (UniProt Q9FLT0)
T3 sequence: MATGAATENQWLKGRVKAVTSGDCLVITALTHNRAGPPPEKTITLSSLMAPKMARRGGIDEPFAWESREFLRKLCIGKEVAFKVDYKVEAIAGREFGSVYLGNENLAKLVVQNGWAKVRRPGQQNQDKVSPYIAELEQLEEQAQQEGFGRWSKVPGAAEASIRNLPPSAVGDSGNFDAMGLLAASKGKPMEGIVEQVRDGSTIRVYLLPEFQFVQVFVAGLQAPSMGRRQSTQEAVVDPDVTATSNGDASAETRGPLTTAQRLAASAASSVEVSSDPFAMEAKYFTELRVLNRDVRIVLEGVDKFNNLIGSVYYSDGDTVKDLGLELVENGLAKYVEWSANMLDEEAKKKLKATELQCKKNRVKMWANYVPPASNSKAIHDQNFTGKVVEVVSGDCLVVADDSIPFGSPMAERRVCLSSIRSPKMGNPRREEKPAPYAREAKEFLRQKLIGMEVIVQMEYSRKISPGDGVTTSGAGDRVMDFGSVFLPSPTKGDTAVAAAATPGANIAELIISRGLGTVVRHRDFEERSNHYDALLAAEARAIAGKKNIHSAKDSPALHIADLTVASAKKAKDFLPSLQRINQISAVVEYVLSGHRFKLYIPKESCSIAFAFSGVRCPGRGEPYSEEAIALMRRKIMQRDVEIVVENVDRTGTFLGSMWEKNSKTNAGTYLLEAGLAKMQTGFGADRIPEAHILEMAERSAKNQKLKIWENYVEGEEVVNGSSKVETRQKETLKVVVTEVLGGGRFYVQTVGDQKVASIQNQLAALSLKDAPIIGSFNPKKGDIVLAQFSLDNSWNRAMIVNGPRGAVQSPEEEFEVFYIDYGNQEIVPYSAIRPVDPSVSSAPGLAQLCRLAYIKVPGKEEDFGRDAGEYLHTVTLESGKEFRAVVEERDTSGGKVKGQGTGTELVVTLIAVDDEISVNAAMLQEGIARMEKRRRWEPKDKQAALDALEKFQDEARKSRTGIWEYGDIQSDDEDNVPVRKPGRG

B1: SnRK1α1 fused to CFP or YFP for FRET (protein, UniProt Q38997 1-512)
chain: MDGSGTGSRSGVESILPNYKLGRTLGIGSFGRVKIAEHALTGHKVAIKILNRRKIKNMEMEEKVRREIKILRLFMHPHIIRLYEVIETPTDIYLVMEYVNSGELFDYIVEKGRLQEDEARNFFQQIISGVEYCHRNMVVHRDLKPENLLLDSKCNVKIADFGLSNIMRDGHFLKTSCGSPNYAAPEVISGKLYAGPEVDVWSCGVILYALLCGTLPFDDENIPNLFKKIKGGIYTLPSHLSPGARDLIPRMLVVDPMKRVTIPEIRQHPWFQAHLPRYLAVPPPDTVQQAKKIDEEILQEVINMGFDRNHLIESLRNRTQNDGTVTYYLILDNRFRASSGYLGAEFQETMEGTPRMHPAESVASPVSHRLPGLMEYQGVGLRSQYPVERKWALGLQSRAHPREIMTEVLKALQDLNVCWKKIGHYNMKCRWVPNSSADGMLSNSMHDNNYFGDESSIIENEAAVKSPNVVKFEIQLYKTRDDKYLLDLQRVQGPQFLFLDLCAAFLAQLRVL
B2: SnRK1α2 fused to CFP or YFP for FRET (protein, UniProt P92958 1-512)
chain: MDHSSNRFGNNGVESILPNYKLGKTLGIGSFGKVKIAEHVVTGHKVAIKILNRRKIKNMEMEEKVRREIKILRLFMHPHIIRQYEVIETTSDIYVVMEYVKSGELFDYIVEKGRLQEDEARNFFQQIISGVEYCHRNMVVHRDLKPENLLLDSRCNIKIADFGLSNVMRDGHFLKTSCGSPNYAAPEVISGKLYAGPEVDVWSCGVILYALLCGTLPFDDENIPNLFKKIKGGIYTLPSHLSSEARDLIPRMLIVDPVKRITIPEIRQHRWFQTHLPRYLAVSPPDTVEQAKKINEEIVQEVVNMGFDRNQVLESLRNRTQNDATVTYYLLLDNRFRVPSGYLESEFQETTDSGSNPMRTPEAGASPVGHWIPAHVDHYGLGARSQVPVDRKWALGLQSHAHPREIMNEVLKALQELNVCWKKIGHYNMKCRWVPGLADGQNTMVNNQLHFRDESSIIEDDCAMTSPTVIKFELQLYKAREEKYLLDIQRVNGPQFLFLDLCAAFLTELRVI
B3: Myc‐RH12 (protein, UniProt Q9M2E0 1-498)
chain: MNTNRGRYPPGVGTGRGAPPNPDYHQSYRQQQPPQDQQYVQRGYSQNPQQMQLQQQHQQQQQQQQWSRRPQLPGNASNANEVVQQTTQPEASSDANGQDWKATLRLPPPDTRYQTADVTATKGNEFEDYFLKRDLLKGIYEKGFEKPSPIQEESIPIALTGSDILARAKNGTGKTGAFCIPVLEKIDPNNNVIQAMILVPTRELALQTSQVCKELSKYLNIQVMVTTGGTSLRDDIMRLHQPVHLLVGTPGRILDLTKKGVCVLKDCAMLVMDEADKLLSAEFQPSLEELIQFLPQNRQFLMFSATFPVTVKAFKDRHLRKPYVINLMDQLTLMGVTQYYAFVEERQKVHCLNTLFSKLQINQSIIFCNSVNRVELLAKKITELGYSCFYIHAKMVQDHRNRVFHEFRNGACRNLVCTDLFTRGIDIQAVNVVINFDFPRTSESYLHRVGRSGRFGHLGLAVNLVTYEDRFKMYQTEQELGTEIKPIPSNIDQAIYCQ

What was measured:
[1] = target: T1, TSN2 fused to CFP or YFP for FRET (Arabidopsis thaliana); test: FRET or BRET; acceptor photobleaching FRET with the CFP-YFP pair in N. benthamiana leaves under HS (39°C for 40 min); empty vector as negative control
[2] = target: T2, GFP‐TSN1 (Arabidopsis thaliana); test: co-IP; extracts of N. benthamiana leaves agro-infiltrated with GFP-TSN1, GFP-TSN2 or free GFP and Myc-RH12; blots with α-Myc and α-GFP
[3] = target: T3, GFP‐TSN2 (Arabidopsis thaliana); test: as above

Row | Binder | binding [1] | binding [2] | binding [3]
1 | B1 | binds |  | 
2 | B2 | binds |  | 
3 | B3 |  | binds | binds
